This is an account of results in article PMC7977449.

Amino acid sequences for entries named in this document (tags omitted). A change or cut given only in a name is not applied to a line headed by its entry.
UniProt P40763: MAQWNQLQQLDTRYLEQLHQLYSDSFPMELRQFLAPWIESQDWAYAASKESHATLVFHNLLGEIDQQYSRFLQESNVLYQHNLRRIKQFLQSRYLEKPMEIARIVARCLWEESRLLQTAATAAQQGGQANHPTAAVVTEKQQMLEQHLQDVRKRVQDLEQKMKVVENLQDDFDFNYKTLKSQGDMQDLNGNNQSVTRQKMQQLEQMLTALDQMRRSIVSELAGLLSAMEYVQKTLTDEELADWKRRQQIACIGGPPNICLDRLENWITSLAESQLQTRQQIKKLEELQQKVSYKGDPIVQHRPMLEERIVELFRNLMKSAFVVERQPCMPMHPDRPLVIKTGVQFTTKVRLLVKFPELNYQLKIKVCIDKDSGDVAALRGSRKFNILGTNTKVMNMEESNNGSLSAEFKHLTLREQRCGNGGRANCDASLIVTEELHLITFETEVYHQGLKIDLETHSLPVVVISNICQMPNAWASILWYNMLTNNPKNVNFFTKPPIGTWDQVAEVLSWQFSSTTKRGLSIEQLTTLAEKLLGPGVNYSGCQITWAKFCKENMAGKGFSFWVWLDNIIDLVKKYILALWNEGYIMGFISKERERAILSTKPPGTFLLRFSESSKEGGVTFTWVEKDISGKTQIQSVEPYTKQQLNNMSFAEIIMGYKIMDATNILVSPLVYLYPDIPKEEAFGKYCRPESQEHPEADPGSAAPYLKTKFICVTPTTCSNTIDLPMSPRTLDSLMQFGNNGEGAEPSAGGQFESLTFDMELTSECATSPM
UniProt Q86WI3: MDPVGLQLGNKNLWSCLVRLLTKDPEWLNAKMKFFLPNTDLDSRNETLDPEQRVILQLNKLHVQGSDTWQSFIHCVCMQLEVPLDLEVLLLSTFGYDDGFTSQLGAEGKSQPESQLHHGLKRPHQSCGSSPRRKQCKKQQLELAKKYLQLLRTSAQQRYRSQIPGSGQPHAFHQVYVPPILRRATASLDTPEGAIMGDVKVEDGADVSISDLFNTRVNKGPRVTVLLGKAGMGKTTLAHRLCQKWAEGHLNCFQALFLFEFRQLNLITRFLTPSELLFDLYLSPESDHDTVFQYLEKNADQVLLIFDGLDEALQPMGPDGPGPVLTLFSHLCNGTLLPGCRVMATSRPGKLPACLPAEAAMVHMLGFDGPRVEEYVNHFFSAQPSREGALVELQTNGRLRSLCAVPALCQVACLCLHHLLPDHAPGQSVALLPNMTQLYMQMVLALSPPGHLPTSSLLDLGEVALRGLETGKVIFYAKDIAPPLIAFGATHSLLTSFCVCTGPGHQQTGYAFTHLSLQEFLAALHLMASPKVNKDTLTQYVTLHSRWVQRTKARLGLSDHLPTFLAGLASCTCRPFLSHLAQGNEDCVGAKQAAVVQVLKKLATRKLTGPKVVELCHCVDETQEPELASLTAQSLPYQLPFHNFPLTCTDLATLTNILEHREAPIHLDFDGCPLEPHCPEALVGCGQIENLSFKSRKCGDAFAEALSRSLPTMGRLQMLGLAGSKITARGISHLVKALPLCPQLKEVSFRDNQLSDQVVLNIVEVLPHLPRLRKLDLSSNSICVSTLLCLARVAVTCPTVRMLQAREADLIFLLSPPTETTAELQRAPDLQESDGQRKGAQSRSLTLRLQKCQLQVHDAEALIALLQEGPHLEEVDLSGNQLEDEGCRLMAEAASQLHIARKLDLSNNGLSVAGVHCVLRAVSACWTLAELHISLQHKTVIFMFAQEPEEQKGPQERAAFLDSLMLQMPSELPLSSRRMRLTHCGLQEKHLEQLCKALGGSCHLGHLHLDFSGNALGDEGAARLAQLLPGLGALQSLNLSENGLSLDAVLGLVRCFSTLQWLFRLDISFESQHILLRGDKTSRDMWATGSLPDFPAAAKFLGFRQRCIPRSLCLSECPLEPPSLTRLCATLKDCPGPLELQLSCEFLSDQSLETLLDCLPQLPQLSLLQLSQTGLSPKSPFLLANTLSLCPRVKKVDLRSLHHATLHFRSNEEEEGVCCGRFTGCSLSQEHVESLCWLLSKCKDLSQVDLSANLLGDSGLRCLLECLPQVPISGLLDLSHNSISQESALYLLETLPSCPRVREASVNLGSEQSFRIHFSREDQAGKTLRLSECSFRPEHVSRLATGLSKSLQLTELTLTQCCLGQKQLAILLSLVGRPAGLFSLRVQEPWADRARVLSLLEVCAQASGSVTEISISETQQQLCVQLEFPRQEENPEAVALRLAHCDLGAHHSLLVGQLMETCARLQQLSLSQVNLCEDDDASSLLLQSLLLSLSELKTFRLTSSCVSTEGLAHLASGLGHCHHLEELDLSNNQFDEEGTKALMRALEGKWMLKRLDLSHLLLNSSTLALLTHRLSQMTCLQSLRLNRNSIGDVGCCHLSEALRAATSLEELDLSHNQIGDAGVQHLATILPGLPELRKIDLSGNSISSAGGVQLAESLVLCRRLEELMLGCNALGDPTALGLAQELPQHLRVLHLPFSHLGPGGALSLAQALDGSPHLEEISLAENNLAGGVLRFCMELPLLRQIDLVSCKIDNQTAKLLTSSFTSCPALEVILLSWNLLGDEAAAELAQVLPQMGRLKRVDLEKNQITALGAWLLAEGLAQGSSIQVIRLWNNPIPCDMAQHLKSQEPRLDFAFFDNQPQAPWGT

These are yes or no findings as the source states them, for the method shown. Binding seen in cells or lysates may run through a third protein. Binding can be weak; no strength is given.

For the test, the target named is STAT3-Flag (UniProt P40763). Briefly: co-IP; HEK293T cells transfected with myc- and Flag-tagged plasmids; lysate immunoprecipitated with anti-myc or anti-Flag antibody, protein A/G agarose, western blot.

Consider “myc-NLRC5 ΔDD (135-1855 aa) (from UniProt Q86WI3) (domain or fragment)”, for which the binding result is “binds”.
